Hit rate of the full screen: of about 310,000 compounds, about 17,000 (5.5%) were called active. The inconclusive results got no clear call from the source; some entries with a clear call stand among them for comparison. Calls come from the whole dose curve; as a rule, active = well fitted inhibition curve with a large enough effect; inconclusive = small, poorly fitted or top-dose-only effect, or effect the other way; inactive = no such curve, though single readings can be large or run the other way. Potencies of inconclusive entries are doubtful fits and often do not repeat.
Target: Nuclear receptor ROR-gamma (Mus musculus) (UniProt P51450)
Assay: qHTS for inhibitors of ROR gamma transcriptional activity; note: nearly all actives have a fitted effect of over 60% in size
Conditions: Drosophila S2 Gal4-RORgamma UAS-luciferase reporter, 20 h; series mostly up to 53.6 µM
Outline: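 Luciferase reporter read in Schneider cells carrying Gal4-RORγ (mouse) and UAS-Photinus luciferase; cells given compound 1 h before 700 uM copper sulfate induction, then incubated 20 h at ambient temperature.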
Potency is the fitted concentration of half-maximal effect.

Amino acid sequences for entries named in this document (tags omitted). A change or cut given only in a name is not applied to a line headed by its entry.
UniProt P51450: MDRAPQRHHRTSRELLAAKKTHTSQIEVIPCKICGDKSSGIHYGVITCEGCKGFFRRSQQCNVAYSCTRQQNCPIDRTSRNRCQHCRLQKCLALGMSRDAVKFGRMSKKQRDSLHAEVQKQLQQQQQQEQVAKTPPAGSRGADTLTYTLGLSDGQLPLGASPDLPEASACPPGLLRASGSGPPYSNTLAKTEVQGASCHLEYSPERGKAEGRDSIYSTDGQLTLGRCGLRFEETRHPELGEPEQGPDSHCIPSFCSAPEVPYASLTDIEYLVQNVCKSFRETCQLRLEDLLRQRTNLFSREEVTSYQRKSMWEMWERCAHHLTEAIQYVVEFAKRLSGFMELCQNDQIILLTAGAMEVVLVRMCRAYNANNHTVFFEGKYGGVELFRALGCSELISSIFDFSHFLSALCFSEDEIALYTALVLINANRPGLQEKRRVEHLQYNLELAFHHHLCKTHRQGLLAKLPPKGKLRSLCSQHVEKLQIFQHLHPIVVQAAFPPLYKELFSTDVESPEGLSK

SMILES | Potency
Cc1ccc(S(=O)(=O)Nc2ccccc2CNc2ccc(Br)cn2)cc1 | inconclusive: 25.1 µM [activator, single point]
O=C(NN=C1CCCC1)c1cccs1 | inconclusive: 28.2 µM [inhibitor, single point]
Cc1cccc(N2CCN(C(=O)COc3cccc4c3OC(C)(C)C4)CC2)c1C | inconclusive: 3.98 µM [activator, full curve]
COc1ccc(-c2nc(C#N)c(NC(C)c3ccccc3)o2)cc1OC (configuration not stated) | inconclusive: 10 µM [activator, single point]
O=C(Nc1ccccc1)Nc1cccc(NC(=O)Nc2ccccc2)c1F | inactive
Cn1cccc1/C=N/n1c(-c2ccccc2)n[nH]c1=S | active: 14.1 µM
O=C(Nc1ccc([N+](=O)[O-])cc1)C(=O)Nc1cccc(C(=O)O)c1 | active: 0.355 µM
Cc1cccc(C(=O)NCc2nnc(SCC(=O)NC3CCCC3)n2C)c1 | inactive
CC(=O)Nc1ccc(/C=N/N2C(C)CCCC2C)cc1 (configuration not stated) | inconclusive: 5.62 µM [inhibitor, single point]
CCc1c(C)sc2nc(C(C)C)nc(SCC(=O)N3CCc4ccccc4C3)c12 | inconclusive: 3.16 µM [activator, full curve]
COCCCn1c(CCC(=O)O)ccc1-c1ccc(F)cc1 | inconclusive: 14.1 µM [activator, partial curve]
CCOc1ccc(NC(=O)c2ccc3c(=O)n(-c4ccc(OC)cc4OC)c(=S)[nH]c3c2)cc1 | inconclusive: 2.82 µM [inhibitor, partial curve]
CCOc1ccc(C(Nc2cccnc2)c2cc(Cl)c3cccnc3c2O)cc1 (configuration not stated) | active: 5.62 µM
S=C(Nc1ccc(Cl)cc1)Nc1ccc2cn[nH]c2c1 | inconclusive: 11.2 µM [inhibitor, single point]
CC(=O)Nc1ccc(/C=C/C(=O)c2ccccc2)cc1 | inconclusive: 35.5 µM [inhibitor, single point]
Clc1ccccc1OCCn1ccnc1 | inactive
Cc1ccc(Nc2nnc(SCC(=O)Nc3ccccc3[N+](=O)[O-])s2)cc1 | inconclusive: 14.1 µM [inhibitor, single point]
CC(C)C1=NN(C(=O)c2ccccc2)C(O)(C(C)(C)C)C1 (configuration not stated) | active: 4.47 µM
Fc1ccc(C2CCCN2Cc2nc(-c3cnccn3)no2)cc1 (configuration not stated) | inconclusive: 28.2 µM [activator, single point]
CC(=O)N1c2ccc(S(=O)(=O)N3CCC(C(=O)N4CCCCC4)CC3)cc2CC1C (configuration not stated) | inconclusive: 35.5 µM [activator, single point]
O=C(Oc1cccc2cccnc12)c1cccc([N+](=O)[O-])c1 | active: 3.55 µM
CCOC(=O)CSc1nc2ccc(Nc3nc(N4CCOCC4)nc(N4CCOCC4)n3)cc2s1 | inconclusive: 6.31 µM [activator, partial curve, poor fit]
O=C(O)C1CC(=O)N(c2ccc(OCc3c(F)cccc3Cl)cc2)C1 (configuration not stated) | inconclusive: 35.5 µM [inhibitor, single point]
CCc1[nH]c(=S)c(C#N)c2c1CCCC2 | inconclusive: 20 µM [inhibitor, single point]

3 entries drawn at random from the list so far:
SMILES | Potency
O=C(O)C1CC(=O)N(c2ccc(OCc3c(F)cccc3Cl)cc2)C1 (configuration not stated) | inconclusive: 35.5 µM [inhibitor, single point]
O=C(NN=C1CCCC1)c1cccs1 | inconclusive: 28.2 µM [inhibitor, single point]
Fc1ccc(C2CCCN2Cc2nc(-c3cnccn3)no2)cc1 (configuration not stated) | inconclusive: 28.2 µM [activator, single point]

(continued)

SMILES | Potency
N#Cc1c(-c2ccc(Br)cc2)cc(-c2cccnc2)nc1N | inactive
O=C(CCc1ccccc1O)N/N=C/c1ccc(Sc2cccc3cccnc23)o1 | inconclusive: 35.5 µM [inhibitor, single point]
Cc1c(C(=O)N2CCCCC2)oc2ccc(S(=O)(=O)N3CC(C)CC(C)C3)cc12 (configuration not stated) | inconclusive: 17.8 µM [activator, partial curve]
CCOc1ccc(NC(=S)Nc2ccc(OCc3ccccc3)cc2)cc1 | inconclusive: 15.8 µM [inhibitor, single point]
Oc1ccc2ccccc2c1C=Nc1ccccc1-c1nc2ccccc2[nH]1 | inconclusive: 20 µM [inhibitor, single point]
CCCCc1c(C)c(C#N)c2nc3ccccc3n2c1NCCN(C)C | inactive
O=C(NCCc1cscn1)C1CCC(=O)N(Cc2ccc(Cl)cc2)C1 (configuration not stated) | active: 20 µM
Cn1ncc(Cl)c1C(=O)N1CCc2ccccc21 | inconclusive: 12.6 µM [activator, single point]
C=CCn1c(Cc2ccc(OC)cc2)nnc1SCc1nc2ccccc2c(=O)[nH]1 | inconclusive: 35.5 µM [inhibitor, single point]
CCc1cc(C(=O)N/N=C/c2ccc(O)cc2O)c2ccccc2n1 | active: 11.2 µM
O=C(Nc1ccc2c(c1)CCC2)c1cnn2c1NC(c1ccco1)CC2C(F)(F)F (configuration not stated) | inconclusive: 17.8 µM [inhibitor, single point]
Cc1ccc(C2NC(=S)NC3=C2N2CCC3CC2)cc1 (configuration not stated) | active: 11.2 µM
O=C(NCCn1cc(SCc2ccccc2F)c2ccccc21)c1c(F)cccc1F | inconclusive: 31.6 µM [activator, single point]
CCOc1ccc(NC(=O)N2CCC(n3nnc4cc(C)ccc43)CC2)cc1 | inactive
Cc1oc2ccccc2c1-c1cn2c(n1)SCC2 | inconclusive: 35.5 µM [activator, single point]
CC(=O)N(c1ccc(C(F)(F)F)cc1)S(=O)(=O)c1ccc(N2C(=O)CCC2=O)cc1 | inconclusive: 12.6 µM [activator, single point]
Cc1nc2ccccc2nc1NS(=O)(=O)c1ccc(N)cc1 | inactive
NC(=S)NNC(=S)Nc1ccccc1 | inconclusive: 22.4 µM [inhibitor, single point]
COc1ccc(-n2nc(C(=O)NCC(=O)Nc3cccc(Cl)c3)c3ccccc3c2=O)cc1 | inactive
O=C(N/N=C/c1ccccc1Cl)c1n[nH]c2c1CCCC2 | active: 2.82 µM
Fc1ccc(N=C2NN=C(c3cc(F)ccc3F)CS2)cc1 | inconclusive: 22.4 µM [inhibitor, single point]
O=C(O)c1ccccc1Sc1ccccc1S(=O)(=O)NC1CCCCC1 | inactive
Cc1ccc(C(=O)Nn2cnnc2)cc1Cl | inconclusive: 0.158 µM [inhibitor, full curve, poor fit]
